Measured values from PubChem BioAssay AID330 (DTP/NCI, 2004).
The list does not hold the whole screen: it is rich in T/C values a quarter to a half above the control, in often repeated tests (any T/C) and in doses without a T/C. Further doses and runs are listed elsewhere. T/C gives the treated animals as a percentage of the vehicle group. Some doses have a count of surviving animals in place of a T/C: the source files T/C as zero there, which appears to mark a toxic dose or a test without result, not a measured value. Some doses without a T/C left all or most animals alive at the check, yet need not have been tolerated: the source hardly ever lists a survival T/C far under the control, and the zero likely stands for such cases as well. Survivors were counted at the toxicity check, usually on the fifth day, unless a day is given; later deaths do not show. Schedules are NCI's codes, read here as Q, the interval in days (D) or hours (H), X, the number of doses. Some entries were tested several times; the results are listed from low to high. For survival time, the PubChem record calls one and a half times the control and up active, and a quarter to a half above the control has no call in these data; cut-offs in other NCI protocols can differ. Marks such as (2×) say how often a value occurs here. Some T/C values carry the count of animals alive at the toxicity check (mostly the fifth day); without a count, all were alive then.

Test system: P388 leukemia ip, CD2F1 mice, survival T/C
Experiment: NCI In Vivo Anticancer Drug Screen. Data for tumor model P388 Leukemia (intraperitoneal) in CD2F1 (CDF1) mice
Details: T/C endpoint: median survival time, higher T/C = longer survival
[1] = dose: 25.0 mg/kg/injection, schedule: Q01DX009 (ip), vehicle: Klucel (hydroxypropylcellulose) (HPC)
[2] = dose: 50.0 mg/kg/injection, schedule: Q01DX009 (ip), vehicle: Klucel (hydroxypropylcellulose) (HPC)
[3] = dose: 100.0 mg/kg/injection, schedule: Q01DX009 (ip), vehicle: Klucel (hydroxypropylcellulose) (HPC)
[4] = dose: 200.0 mg/kg/injection, schedule: Q01DX009 (ip), vehicle: Klucel (hydroxypropylcellulose) (HPC)
[5] = dose: 100.0 mg/kg/injection, schedule: Q01DX009 (ip), vehicle: saline with Tween-80
[6] = dose: 200.0 mg/kg/injection, schedule: Q01DX009 (ip), vehicle: saline with Tween-80
[7] = dose: 25.0 mg/kg/injection, schedule: Q01DX009 (ip), vehicle: water
[8] = dose: 50.0 mg/kg/injection, schedule: Q01DX009 (ip), vehicle: water
[9] = dose: 50.0 mg/kg/injection, schedule: Q01DX009 (ip), vehicle: saline with Tween-80
[10] = dose: 400.0 mg/kg/injection, schedule: Q04DX003 (ip), vehicle: saline with Tween-80
[11] = dose: 200.0 mg/kg/injection, schedule: Q01DX005 (ip), vehicle: Klucel (hydroxypropylcellulose) (HPC)
[12] = dose: 25.0 mg/kg/injection, schedule: Q01DX009 (ip), vehicle: saline with Tween-80

Question: What does the source list for `CC(C)NC(=O)N(CCCCBr)N=O`?
Answer: T/C [1]: 127 % of control; T/C [2]: 135 % of control; T/C [3]: 137 and 145 % of control; survivor count [4]: 5 of 6 and 6 of 6

Question: Which survivor count [5] does the source give for `C[Si](C)(OC(=O)N(CCCl)CCCl)O[Si](C)(C)OC(=O)N(CCCl)CCCl` here?
Answer: 6 of 6

Question: What about the survivor count [6] of the same molecule?
Answer: 6 of 6

Question: For `CS(C)=NC(=Nc1ccc(Cl)cc1)c1ccccc1`, which survivor count [5] is on record?
Answer: 2 of 6

Question: For `Oc1ccccc1N=Cc1cccs1`, which T/C (dose: 400.0 mg/kg/injection, schedule: Q01DX009 (ip), vehicle: Klucel (hydroxypropylcellulose) (HPC)) is on record?
Answer: 127 % of control [5 of 6 alive]

Question: `Cc1c(C(=O)O)nc(-c2ccc3c(n2)C(=O)C(N)=CC3=O)c2[nH]c3ccccc3c12` was tested. Which survivor count (dose: 1.6 mg/kg/injection, schedule: Q01DX009 (ip), vehicle: distilled water + Tween-80 + alcohol) did it give?
Answer: 6 of 6

Question: And the survivor count (dose: 3.2 mg/kg/injection, schedule: Q01DX009 (ip), vehicle: distilled water + Tween-80 + alcohol)?
Answer: 6 of 6

Question: `CCCCOc1ccc(/C=N/NC(=O)CNC(=O)Nc2cccc([N+](=O)[O-])c2)cc1` was tested. Which survivor count (dose: 120.0 mg/kg/injection, schedule: Q01DX005 (ip), vehicle: saline with Tween-80) did it give?
Answer: 6 of 6

Question: Which survivor count [6] does the source give for `Cc1ccccc1CC(C)c1ccccc1` (configuration not stated) here?
Answer: 2 of 6

Question: For `Cc1nccnc1NN=O`, which T/C [7] is on record?
Answer: 128 and 130 % of control

Question: And the T/C [8]?
Answer: 137 and 142 % of control [5 of 6 alive]

Question: `CCCOC(=O)/C=C(\Cl)C(=O)OCCC` was tested. Which survivor count [9] did it give?
Answer: 3 of 6

Question: And the survivor count [5]?
Answer: 0 of 6

Question: And the survivor count [6]?
Answer: 0 of 6

Question: How did the survivor count (dose: 14.0 mg/kg/injection, schedule: Q01DX005 (ip), vehicle: Klucel (hydroxypropylcellulose) (HPC)) turn out when `COc1cc2oc3c(C)c(=O)cc4oc(-c5ccccc5)cc(c2c2c1CCC(c1ccccc1)O2)c43` (configuration not stated) was run?
Answer: 6 of 6

Question: For `C(=C\CN1CCOCC1)/Cc1cccnc1`, which T/C (dose: 12.5 mg/kg/injection, schedule: Q01DX009 (ip), vehicle: saline with Tween-80) is on record?
Answer: 131 % of control

Question: And the survivor count [5]?
Answer: 0 of 6

Question: And the survivor count [6]?
Answer: 0 of 6

Question: Which T/C (dose: 100.0 mg/kg/injection, schedule: Q01DX009 (ip), vehicle: saline + alcohol) does the source give for `CC1(C)CC(OP(=S)(OC2CC(C)(C)N(O)C(C)(C)C2)N2CC2)CC(C)(C)N1O` here?
Answer: 147 % of control

Question: `CCCCCCCCCCCCn1ccnc1` was tested. Which survivor count [10] did it give?
Answer: 0 of 6

Question: For `Cc1cc(C)c(C(Cl)(Cl)Cl)c(C)c1Cl`, which T/C (dose: 25.0 mg/kg/injection, schedule: Q01DX009 (ip), vehicle: saline sonified) is on record?
Answer: 131 % of control

Question: What about the T/C (dose: 25.0 mg/kg/injection, schedule: Q04DX003 (ip), vehicle: saline with Tween-80) of the same molecule?
Answer: 127 % of control

Question: And the T/C (dose: 50.0 mg/kg/injection, schedule: Q01DX009 (ip), vehicle: saline sonified)?
Answer: 136 % of control

Question: What about the survivor count (dose: 100.0 mg/kg/injection, schedule: Q04DX003 (ip), vehicle: saline with Tween-80) of the same molecule?
Answer: 1 of 6

Question: And the survivor count (dose: 200.0 mg/kg/injection, schedule: Q04DX003 (ip), vehicle: saline with Tween-80)?
Answer: 1 of 6

Question: What about the survivor count [10] of the same molecule?
Answer: 0 of 6

Question: Which survivor count (dose: 10.0 mg/kg/injection, schedule: Q04DX002 (ip), vehicle: saline with Tween-80) does the source give for `CC1=CC(=O)C2OC2C1=O` (configuration not stated) here?
Answer: 0 of 6

Question: And the survivor count (dose: 20.0 mg/kg/injection, schedule: Q04DX002 (ip), vehicle: saline with Tween-80)?
Answer: 0 of 6

Question: What about the survivor count (dose: 100.0 mg/kg/injection, schedule: Q04DX002 (ip), vehicle: saline with Tween-80) of the same molecule?
Answer: 0 of 6

Question: And the survivor count (dose: 200.0 mg/kg/injection, schedule: Q04DX002 (ip), vehicle: saline with Tween-80)?
Answer: 0 of 6

Question: And the survivor count (dose: 400.0 mg/kg/injection, schedule: Q04DX002 (ip), vehicle: saline with Tween-80)?
Answer: 0 of 6

Question: `C1=C([P+](c2ccccc2)(c2ccccc2)c2ccccc2)CCCC1` was tested. Which T/C (dose: 6.25 mg/kg/injection, schedule: Q01DX009 (ip), vehicle: Klucel (hydroxypropylcellulose) (HPC)) did it give?
Answer: 137 % of control

Question: And the survivor count (dose: 12.5 mg/kg/injection, schedule: Q01DX009 (ip), vehicle: Klucel (hydroxypropylcellulose) (HPC))?
Answer: 6 of 6

Question: And the survivor count [1]?
Answer: 0 of 6

Question: And the survivor count [2]?
Answer: 0 of 6

Question: And the survivor count [3]?
Answer: 0 of 6

Question: And the survivor count [4]?
Answer: 0 of 6

Question: For `CN(C)CCSC(=O)N1c2ccccc2C(C)(C)c2ccccc21`, which survivor count (dose: 200.0 mg/kg/injection, schedule: Q01DX009 (ip), vehicle: saline) is on record?
Answer: 5 of 6

Question: What does the source list for `O/N=C1/C(=N/O)N(c2ccccc2)CN1c1ccccc1`?
Answer: survivor count (dose: 60.0 mg/kg/injection, schedule: Q01DX005 (ip), vehicle: Klucel (hydroxypropylcellulose) (HPC)): 6 of 6; survivor count (dose: 120.0 mg/kg/injection, schedule: Q01DX005 (ip), vehicle: Klucel (hydroxypropylcellulose) (HPC)): 6 of 6; survivor count (dose: 240.0 mg/kg/injection, schedule: Q01DX005 (ip), vehicle: Klucel (hydroxypropylcellulose) (HPC)): 6 of 6

Question: `CCC/C(=N/NC(N)=O)C(OC)OC` was tested. Which survivor count (dose: 150.0 mg/kg/injection, schedule: Q01DX009 (ip), vehicle: saline) did it give?
Answer: 6 of 6

Question: Which T/C (dose: 12.5 mg/kg/injection, schedule: Q01DX009 (ip), vehicle: water) does the source give for `O=NNc1ccnc(-c2cc(NN=O)ccn2)c1` here?
Answer: 134 and 141 % of control

Question: And the T/C [7]?
Answer: 129 and 133 % of control

Question: And the T/C [8]?
Answer: 130 and 132 % of control

Question: For `CCCCCCCCCCCCCCCCCC(=O)NC1c2ccccc2Oc2ccccc21`, which survivor count (dose: 50.0 mg/kg/injection, schedule: Q01DX005 (ip), vehicle: saline with Tween-80) is on record?
Answer: 5 of 5

Question: And the survivor count (dose: 100.0 mg/kg/injection, schedule: Q01DX005 (ip), vehicle: saline with Tween-80)?
Answer: 5 of 5

Question: With `Nc1ccc(Nc2ccncc2)cc1` as the molecule, how does the survivor count [2] read?
Answer: 3 of 6

Question: What about the survivor count [3] of the same molecule?
Answer: 0 of 6

Question: And the survivor count [4]?
Answer: 0 of 6

Question: Which survivor count [11] does the source give for `Cn1c(=O)c2c(=O)n3ccccc3nc2n(C)c1=O` here?
Answer: 6 of 6

Question: For `CC1(C)CC(NC2CCCCC2)=CC(=NC2CCCCC2)N1`, which survivor count (dose: 12.5 mg/kg/injection, schedule: Q01DX005 (ip), vehicle: Klucel (hydroxypropylcellulose) (HPC)) is on record?
Answer: 6 of 6

Question: What about the survivor count (dose: 50.0 mg/kg/injection, schedule: Q01DX005 (ip), vehicle: Klucel (hydroxypropylcellulose) (HPC)) of the same molecule?
Answer: 3 of 6

Question: And the survivor count (dose: 100.0 mg/kg/injection, schedule: Q01DX005 (ip), vehicle: Klucel (hydroxypropylcellulose) (HPC))?
Answer: 2 of 6

Question: What about the survivor count [11] of the same molecule?
Answer: 0 of 6

Question: With `Nc1cc2c(c[n+](CCO)c3ccccc23)c2ccccc12` as the molecule, how does the survivor count (dose: 200.0 mg/kg/injection, schedule: Q04DX003 (ip), vehicle: other) read?
Answer: 6 of 6

Question: Which results are given for `OC(c1cc2cc(Cl)c(Cl)cc2c2cc(C(F)(F)F)ccc12)C1CCCCN1` (configuration not stated)?
Answer: survivor count [12]: 6 of 6; survivor count [9]: 2 of 6; survivor count [5]: 0 of 6; survivor count [6]: 0 of 6

Question: How did the T/C (dose: 178.0 mg/kg/injection, schedule: Q04DX003 (ip), vehicle: saline) turn out when `CCC(CC)c1ccccn1` was run?
Answer: 131 % of control

Question: What about the T/C (dose: 200.0 mg/kg/injection, schedule: Q04DX003 (ip), vehicle: saline) of the same molecule?
Answer: 140 % of control

Question: What about the T/C (dose: 266.0 mg/kg/injection, schedule: Q04DX003 (ip), vehicle: saline) of the same molecule?
Answer: 145 % of control

Question: And the survivor count (dose: 400.0 mg/kg/injection, schedule: Q01DX009 (ip), vehicle: saline)?
Answer: 0 of 6

Question: What about the T/C (dose: 400.0 mg/kg/injection, schedule: Q04DX003 (ip), vehicle: saline) of the same molecule?
Answer: 145 % of control (2×)

Question: And the T/C (dose: 600.0 mg/kg/injection, schedule: Q04DX003 (ip), vehicle: saline)?
Answer: 131 % of control

Question: With `OC1(c2cccc(Cl)c2)C2=NCCCN2c2ccccc21` (configuration not stated) as the molecule, how does the survivor count [12] read?
Answer: 5 of 6

Question: What about the survivor count [9] of the same molecule?
Answer: 0 of 6 and 3 of 6

Question: And the survivor count [5]?
Answer: 0 of 6

Question: And the survivor count [6]?
Answer: 0 of 6

Question: How did the survivor count [11] turn out when `COc1cccc(CN2CCN(N)CC2)c1` was run?
Answer: 2 of 4

Question: How did the survivor count (dose: 100.0 mg/kg/injection, schedule: Q04DX002 (ip), vehicle: saline) turn out when `[Cu+2].[NH-]/C=C\[NH-].[NH-]/C=C\[NH-].[O-][Cl+3]([O-])([O-])O` was run?
Answer: 0 of 6

Question: And the survivor count (dose: 200.0 mg/kg/injection, schedule: Q04DX002 (ip), vehicle: saline)?
Answer: 0 of 6

Question: And the survivor count (dose: 400.0 mg/kg/injection, schedule: Q04DX002 (ip), vehicle: saline)?
Answer: 0 of 6
